Assay results published in article PMC12165855.

Sequences of proteins named here, by UniProt entry; tags and fusion partners are left off. A change or cut given only in a name is not applied to a line headed by its entry.
UniProt P07711: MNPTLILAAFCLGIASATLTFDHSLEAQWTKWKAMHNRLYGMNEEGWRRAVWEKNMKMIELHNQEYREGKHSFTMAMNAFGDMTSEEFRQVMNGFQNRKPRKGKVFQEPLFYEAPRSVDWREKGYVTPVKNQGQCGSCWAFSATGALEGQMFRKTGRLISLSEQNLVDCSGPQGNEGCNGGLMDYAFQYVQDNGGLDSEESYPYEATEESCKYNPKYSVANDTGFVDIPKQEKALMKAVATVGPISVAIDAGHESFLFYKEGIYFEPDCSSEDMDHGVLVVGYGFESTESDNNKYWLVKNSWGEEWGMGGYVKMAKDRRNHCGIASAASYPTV
UniProt Q9BUQ8: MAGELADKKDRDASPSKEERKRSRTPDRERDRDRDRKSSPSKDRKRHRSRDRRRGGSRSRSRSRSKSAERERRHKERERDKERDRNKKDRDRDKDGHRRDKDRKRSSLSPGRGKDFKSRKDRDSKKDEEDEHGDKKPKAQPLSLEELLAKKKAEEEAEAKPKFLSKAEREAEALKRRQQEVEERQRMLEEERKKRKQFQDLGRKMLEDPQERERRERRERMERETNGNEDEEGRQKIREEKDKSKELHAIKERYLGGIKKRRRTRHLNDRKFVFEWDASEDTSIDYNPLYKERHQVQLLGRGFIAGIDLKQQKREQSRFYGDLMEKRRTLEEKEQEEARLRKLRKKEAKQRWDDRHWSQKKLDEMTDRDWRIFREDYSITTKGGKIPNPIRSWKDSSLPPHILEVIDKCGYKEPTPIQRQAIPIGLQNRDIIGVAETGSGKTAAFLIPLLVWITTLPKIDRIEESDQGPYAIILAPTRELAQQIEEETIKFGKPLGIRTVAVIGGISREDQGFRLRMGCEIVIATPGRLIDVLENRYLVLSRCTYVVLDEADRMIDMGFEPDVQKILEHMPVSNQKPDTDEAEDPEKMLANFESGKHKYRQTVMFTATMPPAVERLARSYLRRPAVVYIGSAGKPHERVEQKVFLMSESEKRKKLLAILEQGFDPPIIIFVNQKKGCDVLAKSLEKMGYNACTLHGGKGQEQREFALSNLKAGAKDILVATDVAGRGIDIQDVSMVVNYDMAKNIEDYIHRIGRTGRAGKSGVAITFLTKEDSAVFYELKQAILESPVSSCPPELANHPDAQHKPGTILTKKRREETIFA

B1: CTS3 cysteine protease inhibitor (protein, UniProt P01034 27-146)
chain: SSPGKPPRLVGGPMDASVEEEGVRRALDFAVGEYNKASNDMYHSRALQVVRARKQIVAGVNYFLDVELGRTTCTKTQPNLDNCPFHDQPHLKRKAFCSFQIYAVPWQGTMTLSKSTCQDA
B2: CTSB cysteine protease inhibitor (protein, UniProt P04080 1-98)
chain: MMCGAPSATQPATAETQHIADQVRSQLEEKENKKFPVFKAVSFKSQVVAGTNYFIKVHVGDEDFVHLRVFQSLPHENKPLTLSNYQTNKAKHDELTYF
B3: grainyhead-like 2 transcription factor (protein, UniProt Q6ISB3 1-625)
chain: MSQESDNNKRLVALVPMPSDPPFNTRRAYTSEDEAWKSYLENPLTAATKAMMSINGDEDSAAALGLLYDYYKVPRDKRLLSVSKASDSQEDQEKRNCLGTSEAQSNLSGGENRVQVLKTVPVNLSLNQDHLENSKREQYSISFPESSAIIPVSGITVVKAEDFTPVFMAPPVHYPRGDGEEQRVVIFEQTQYDVPSLATHSAYLKDDQRSTPDSTYSESFKDAATEKFRSASVGAEEYMYDQTSSGTFQYTLEATKSLRQKQGEGPMTYLNKGQFYAITLSETGDNKCFRHPISKVRSVVMVVFSEDKNRDEQLKYWKYWHSRQHTAKQRVLDIADYKESFNTIGNIEEIAYNAVSFTWDVNEEAKIFITVNCLSTDFSSQKGVKGLPLMIQIDTYSYNNRSNKPIHRAYCQIKVFCDKGAERKIRDEERKQNRKKGKGQASQTQCNSSSDGKLAAIPLQKKSDITYFKTMPDLHSQPVLFIPDVHFANLQRTGQVYYNTDDEREGGSVLVKRMFRPMEEEFGPVPSKQMKEEGTKRVLLYVRKETDDVFDALMLKSPTVKGLMEAISEKYGLPVEKIAKLYKKSKKGILVNMDDNIIEHYSNEDTFILNMESMVEGFKVTLMEI

target: cathepsin L (human (endogenous in SUM149)) (UniProt P07711); assay: affinity purification with mass spectrometry; CTSL immunoprecipitated from SUM149 cells (Dox-inducible shKDM4C #17 and #20 lines without Dox; also #17 with Dox, KDM4C knockdown), on-bead trypsin digest, isotopic labelling, compared to IgG control

binding, binds:
DEAD-Box helicase 23 (from UniProt Q9BUQ8 1-820)
B1
B2
B3

Results are given in words; binding and its absence hold for the method and conditions named. Binding seen in cells or lysates may run through a third protein. A yes stands for co-enrichment or nearness to the bait. Other partners may have been found.
